These are yes or no findings as the source states them, for the method shown. In cells and extracts the contact can be indirect. Some entries that bind do so weakly or less than the wild type. For part of these data: Where a sequence is shown, tags or fusion partners need not be part of it.
Legend:
[1] = molecular target: T1, GIT ArfGAP2 (human (endogenous in immortalized human podocytes CIHP-1)) (UniProt Q14161); experiment: co-IP; lysates of cultured human podocytes immunoprecipitated with anti-GIT2 antibody, immunoblot for paxillin; rabbit IgG as negative control; also from cells treated with 12.5 µM blebbistatin, NSC23766 or vehicle for 16 hours (blebbistatin markedly reduced, NSC23766 did not affect the co-precipitation)
T1 sequence: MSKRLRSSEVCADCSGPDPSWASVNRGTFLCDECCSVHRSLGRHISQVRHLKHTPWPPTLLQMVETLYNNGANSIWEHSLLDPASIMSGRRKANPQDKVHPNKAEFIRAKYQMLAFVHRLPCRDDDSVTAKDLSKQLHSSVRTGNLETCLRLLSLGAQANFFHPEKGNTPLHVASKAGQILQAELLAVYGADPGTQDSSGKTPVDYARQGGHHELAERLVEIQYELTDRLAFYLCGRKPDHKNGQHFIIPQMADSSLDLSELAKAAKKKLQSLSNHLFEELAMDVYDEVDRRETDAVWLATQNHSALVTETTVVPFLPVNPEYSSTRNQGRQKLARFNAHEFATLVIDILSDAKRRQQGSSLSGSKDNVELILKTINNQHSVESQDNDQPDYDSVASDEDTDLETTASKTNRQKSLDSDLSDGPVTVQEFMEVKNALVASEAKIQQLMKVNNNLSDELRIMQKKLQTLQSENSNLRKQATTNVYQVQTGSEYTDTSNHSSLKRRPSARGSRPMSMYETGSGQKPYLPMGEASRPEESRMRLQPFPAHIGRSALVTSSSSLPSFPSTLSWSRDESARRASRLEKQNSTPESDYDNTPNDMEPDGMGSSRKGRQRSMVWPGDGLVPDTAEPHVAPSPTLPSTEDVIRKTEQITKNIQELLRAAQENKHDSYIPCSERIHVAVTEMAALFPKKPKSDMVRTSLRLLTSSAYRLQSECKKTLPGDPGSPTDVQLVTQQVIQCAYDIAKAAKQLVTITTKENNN

By UniProt entry, the sequences of proteins in these tests, tags left out.
UniProt P49023: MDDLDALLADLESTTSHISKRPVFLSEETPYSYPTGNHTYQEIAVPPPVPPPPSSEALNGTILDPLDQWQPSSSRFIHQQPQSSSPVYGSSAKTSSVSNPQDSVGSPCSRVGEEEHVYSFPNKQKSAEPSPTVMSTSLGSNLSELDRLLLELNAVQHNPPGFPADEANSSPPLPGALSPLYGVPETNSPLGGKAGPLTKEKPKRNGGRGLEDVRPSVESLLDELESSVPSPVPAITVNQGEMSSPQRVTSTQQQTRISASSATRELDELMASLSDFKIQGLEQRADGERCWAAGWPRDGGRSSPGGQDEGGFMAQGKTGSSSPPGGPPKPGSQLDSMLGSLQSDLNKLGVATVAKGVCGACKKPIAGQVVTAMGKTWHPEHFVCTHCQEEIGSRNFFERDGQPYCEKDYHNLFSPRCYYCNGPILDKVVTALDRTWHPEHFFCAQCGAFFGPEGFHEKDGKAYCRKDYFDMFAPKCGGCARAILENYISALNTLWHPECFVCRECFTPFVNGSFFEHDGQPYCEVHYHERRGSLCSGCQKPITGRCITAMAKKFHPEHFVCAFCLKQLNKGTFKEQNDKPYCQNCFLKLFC

[2] = molecular target: T2, pEBG-tagged PTP1B-D181A (substrate-trapping mutant) (UniProt P18031); experiment: pull-down; substrate-trapping assay: HEK293 cells transiently transfected with an EGF receptor and pEBG-tagged phosphatase, 100 ng/ml EGF overnight, lysates pulled down by GST, immunoblot for pY410 p130Cas
T2 sequence: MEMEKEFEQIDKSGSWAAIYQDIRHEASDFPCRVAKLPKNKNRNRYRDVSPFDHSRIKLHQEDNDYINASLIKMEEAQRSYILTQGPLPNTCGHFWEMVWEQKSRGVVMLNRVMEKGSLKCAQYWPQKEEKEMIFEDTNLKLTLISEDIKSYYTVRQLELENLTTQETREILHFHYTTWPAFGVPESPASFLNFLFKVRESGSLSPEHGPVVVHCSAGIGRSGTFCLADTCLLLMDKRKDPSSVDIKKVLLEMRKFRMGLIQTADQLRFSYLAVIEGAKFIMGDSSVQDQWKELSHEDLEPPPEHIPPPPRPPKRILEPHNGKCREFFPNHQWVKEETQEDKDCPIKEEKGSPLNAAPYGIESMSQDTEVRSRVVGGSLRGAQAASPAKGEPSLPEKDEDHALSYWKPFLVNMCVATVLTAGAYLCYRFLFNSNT

[3] = molecular target: T3, pEBG-tagged PTP-PEST-C231S (substrate-trapping mutant), Q05209; experiment: as above; settings: remark: other sources report otherwise
T3 chain: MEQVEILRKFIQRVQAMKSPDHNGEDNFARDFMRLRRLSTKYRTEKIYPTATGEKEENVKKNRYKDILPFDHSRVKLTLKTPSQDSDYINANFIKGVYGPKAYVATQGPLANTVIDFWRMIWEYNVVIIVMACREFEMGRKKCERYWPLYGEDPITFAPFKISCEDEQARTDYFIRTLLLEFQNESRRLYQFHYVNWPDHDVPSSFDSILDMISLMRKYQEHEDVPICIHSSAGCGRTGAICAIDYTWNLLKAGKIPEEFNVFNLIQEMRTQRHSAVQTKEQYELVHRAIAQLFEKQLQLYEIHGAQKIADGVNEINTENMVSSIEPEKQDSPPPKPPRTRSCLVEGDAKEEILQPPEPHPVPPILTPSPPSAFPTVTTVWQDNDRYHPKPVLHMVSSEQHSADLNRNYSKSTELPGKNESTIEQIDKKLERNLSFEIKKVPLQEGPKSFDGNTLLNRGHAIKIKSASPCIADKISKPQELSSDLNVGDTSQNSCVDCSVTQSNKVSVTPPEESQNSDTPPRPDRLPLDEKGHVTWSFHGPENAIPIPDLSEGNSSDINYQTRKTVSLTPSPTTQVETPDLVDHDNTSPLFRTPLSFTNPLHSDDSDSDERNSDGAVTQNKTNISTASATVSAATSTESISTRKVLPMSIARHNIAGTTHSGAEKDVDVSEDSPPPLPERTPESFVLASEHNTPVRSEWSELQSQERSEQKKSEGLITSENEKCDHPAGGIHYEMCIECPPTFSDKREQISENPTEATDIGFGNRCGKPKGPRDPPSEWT

paxillin (from UniProt P49023 1-591)
binding [1]: binds

B1: pY410-p130Cas (p130 Crk-associated substrate phosphorylated at tyrosine 410) (protein, UniProt P56945 1-870)
chain: MNHLNVLAKALYDNVAESPDELSFRKGDIMTVLEQDTQGLDGWWLCSLHGRQGIVPGNRLKILVGMYDKKPAGPGPGPPATPAQPQPGLHAPAPPASQYTPMLPNTYQPQPDSVYLVPTPSKAQQGLYQVPGPSPQFQSPPAKQTSTFSKQTPHHPFPSPATDLYQVPPGPGGPAQDIYQVPPSAGMGHDIYQVPPSMDTRSWEGTKPPAKVVVPTRVGQGYVYEAAQPEQDEYDIPRHLLAPGPQDIYDVPPVRGLLPSQYGQEVYDTPPMAVKGPNGRDPLLEVYDVPPSVEKGLPPSNHHAVYDVPPSVSKDVPDGPLLREETYDVPPAFAKAKPFDPARTPLVLAAPPPDSPPAEDVYDVPPPAPDLYDVPPGLRRPGPGTLYDVPRERVLPPEVADGGVVDSGVYAVPPPAEREAPAEGKRLSASSTGSTRSSQSASSLEVAGPGREPLELEVAVEALARLQQGVSATVAHLLDLAGSAGATGSWRSPSEPQEPLVQDLQAAVAAVQSAVHELLEFARSAVGNAAHTSDRALHAKLSRQLQKMEDVHQTLVAHGQALDAGRGGSGATLEDLDRLVACSRAVPEDAKQLASFLHGNASLLFRRTKATAPGPEGGGTLHPNPTDKTSSIQSRPLPSPPKFTSQDSPDGQYENSEGGWMEDYDYVHLQGKEEFEKTQKELLEKGSITRQGKSQLELQQLKQFERLEQEVSRPIDHDLANWTPAQPLAPGRTGGLGPSDRQLLLFYLEQCEANLTTLTNAVDAFFTAVATNQPPKIFVAHSKFVILSAHKLVFIGDTLSRQAKAADVRSQVTHYSNLLCDLLRGIVATTKAAALQYPSPSAAQDMVERVKELGHSTQQFRRVLGQLAAA
modifications: phosphotyrosine at 410
binding [2]: binds

B2: pY410-p130Cas (p130 Crk-associated substrate phosphorylated at tyrosine 410), P56945 1-870 (protein)
chain: MNHLNVLAKALYDNVAESPDELSFRKGDIMTVLEQDTQGLDGWWLCSLHGRQGIVPGNRLKILVGMYDKKPAGPGPGPPATPAQPQPGLHAPAPPASQYTPMLPNTYQPQPDSVYLVPTPSKAQQGLYQVPGPSPQFQSPPAKQTSTFSKQTPHHPFPSPATDLYQVPPGPGGPAQDIYQVPPSAGMGHDIYQVPPSMDTRSWEGTKPPAKVVVPTRVGQGYVYEAAQPEQDEYDIPRHLLAPGPQDIYDVPPVRGLLPSQYGQEVYDTPPMAVKGPNGRDPLLEVYDVPPSVEKGLPPSNHHAVYDVPPSVSKDVPDGPLLREETYDVPPAFAKAKPFDPARTPLVLAAPPPDSPPAEDVYDVPPPAPDLYDVPPGLRRPGPGTLYDVPRERVLPPEVADGGVVDSGVYAVPPPAEREAPAEGKRLSASSTGSTRSSQSASSLEVAGPGREPLELEVAVEALARLQQGVSATVAHLLDLAGSAGATGSWRSPSEPQEPLVQDLQAAVAAVQSAVHELLEFARSAVGNAAHTSDRALHAKLSRQLQKMEDVHQTLVAHGQALDAGRGGSGATLEDLDRLVACSRAVPEDAKQLASFLHGNASLLFRRTKATAPGPEGGGTLHPNPTDKTSSIQSRPLPSPPKFTSQDSPDGQYENSEGGWMEDYDYVHLQGKEEFEKTQKELLEKGSITRQGKSQLELQQLKQFERLEQEVSRPIDHDLANWTPAQPLAPGRTGGLGPSDRQLLLFYLEQCEANLTTLTNAVDAFFTAVATNQPPKIFVAHSKFVILSAHKLVFIGDTLSRQAKAADVRSQVTHYSNLLCDLLRGIVATTKAAALQYPSPSAAQDMVERVKELGHSTQQFRRVLGQLAAA
modifications: here or on the partner: phosphotyrosine at 410
binding [3]: no binding

From PMC12147964
